According to US20130078237A1 (Amgen, published 2013):
Results are given in words; binding and its absence hold for the method and conditions named. A result given as binding can be weak or reduced; the word gives no strength.

Target: cynomolgus monkey CD27L (cynomolgus monkey)
Assay: hybridoma supernatant cross-reactivity screen

B1: Ab6 (antibody, human IgG1, lambda, V domains shown)
VH: QVQLVQSGAEVKKPGASVKVSCKASGYTFTSYGISWVRQAPGQGLEWMGWISAYNGYTHYAQKLQGRVTMTTDTSTSTAYMELRSLRSDDTAVYYCARDYGGNDYYGMDVWGQGTTVTVSS
VL: QSVLTQPPSASGTPGQRVTISCSGSSSNIGINYVYWYQQLPGTAPKLLIYRSDQRPSGVPDRFSGSKSGTSASLALSGLRSEDEADYYCAAWDDSLSGVVFGGGTKLTVLG
notes: Fully human IgG1 from XenoMouse hybridoma
- binding: binds
